Test results published in PubChem BioAssay AID330 (DTP/NCI, 2004).
The list is a part of this screen's results and no random one: it is rich in T/C values a quarter to a half above the control, in often repeated tests (any T/C) and in doses without a T/C. Further doses and runs are listed elsewhere. T/C is the treated group as % of the vehicle group. Some entries give survivors of the animals treated and no T/C: the source files T/C as zero there, which appears to mark a toxic dose or a test without result, not a measured value. Some doses without a T/C left all or most animals alive at the check, yet need not have been tolerated: survival well below the control is almost never listed, so the zero probably covers shortened survival too. Survivors were counted at the toxicity check, usually on the fifth day, unless a day is given; later deaths do not show. Schedules are NCI's codes, read here as Q, the interval in days (D) or hours (H), X, the number of doses. Some molecules as drawn cover several salts, stereoisomers or complexes of the source; a dose is that of the sample tested. Where survival is the endpoint, this PubChem deposit counts one and a half times the control or more as active, and values a quarter to a half above the control carry no call in these data; other NCI protocols may use other cut-offs. Some entries were tested several times; the results are listed from low to high. Some T/C values carry the count of animals alive at the toxicity check (mostly the fifth day); where none is given, no animal had died by that day.

System: P388 leukemia ip, CD2F1 mice, survival T/C
Experiment: NCI In Vivo Anticancer Drug Screen. Data for tumor model P388 Leukemia (intraperitoneal) in CD2F1 (CDF1) mice
Settings: T/C endpoint: median survival time, higher T/C = longer survival

O=C1c2ccccc2C(=O)c2c(NCCNCCO)ccc(NCCNCCO)c21
T/C (dose: 0.06 mg/kg/injection, schedule: Q04DX003 (ip), vehicle: saline): 135 % of control | T/C (dose: 0.25 mg/kg/injection, schedule: Q01DX009 (ip), vehicle: Klucel (hydroxypropylcellulose) (HPC)): 146 % of control | T/C (dose: 0.25 mg/kg/injection, schedule: Q01DX009 (ip), vehicle: water): 144 % of control | T/C (dose: 0.5 mg/kg/injection, schedule: Q01DX009 (ip), vehicle: Klucel (hydroxypropylcellulose) (HPC)): 146 % of control [5 of 6 alive] | T/C (dose: 2.0 mg/kg/injection, schedule: Q01DX009 (ip), vehicle: other): 147 % of control | T/C (dose: 2.0 mg/kg/injection, schedule: Q01DX009 (ip), vehicle: water, evaluated on day 30): 163, 169, 190, 211 % of control | T/C (dose: 2.0 mg/kg/injection, schedule: Q01DX009 (ip), vehicle: water, evaluated on day 60): 156 and 168 % of control | T/C (dose: 2.0 mg/kg/injection, schedule: Q04DX003 (ip), vehicle: saline): 137 % of control | T/C (dose: 2.5 mg/kg/injection, schedule: Q01DX009 (ip), vehicle: saline, evaluated on day 30): 193 % of control | T/C (dose: 2.5 mg/kg/injection, schedule: Q01DX009 (ip), vehicle: saline, evaluated on day 35): 220 % of control | T/C (dose: 2.5 mg/kg/injection, schedule: Q01DX009 (ip), vehicle: saline, evaluated on day 45): 223 % of control | T/C (dose: 2.5 mg/kg/injection, schedule: Q01DX009 (ip), vehicle: saline, evaluated on day 50): 198 % of control | T/C (dose: 2.5 mg/kg/injection, schedule: Q01DX009 (ip), vehicle: water): 144, 154, 158, 183, 185, 203, 238 % of control | T/C (dose: 4.0 mg/kg/injection, schedule: Q01DX009 (ip), vehicle: saline with Tween-80, evaluated on day 30): 183, 270, 275 % of control | T/C (dose: 4.0 mg/kg/injection, schedule: Q01DX009 (ip), vehicle: saline with Tween-80, evaluated on day 35): 212 % of control | T/C (dose: 4.0 mg/kg/injection, schedule: Q01DX009 (ip), vehicle: water, evaluated on day 30): 158, 163, 175, 184, 199, 200 % of control | T/C (dose: 4.0 mg/kg/injection, schedule: Q01DX009 (ip), vehicle: water, evaluated on day 60): 94 and 208 % of control | T/C (dose: 4.0 mg/kg/injection, schedule: Q04DX003 (ip), vehicle: Klucel (hydroxypropylcellulose) (HPC)): 137 % of control | T/C (dose: 4.0 mg/kg/injection, schedule: Q04DX003 (ip), vehicle: saline): 144 % of control | T/C (dose: 5.0 mg/kg/injection, schedule: Q01DX009 (ip), vehicle: saline, evaluated on day 30): 170 % of control | T/C (dose: 5.0 mg/kg/injection, schedule: Q01DX009 (ip), vehicle: saline, evaluated on day 35): 321 % of control | T/C (dose: 5.0 mg/kg/injection, schedule: Q01DX009 (ip), vehicle: saline, evaluated on day 45): 274 % of control | T/C (dose: 5.0 mg/kg/injection, schedule: Q01DX009 (ip), vehicle: saline, evaluated on day 50): 218 % of control | T/C (dose: 5.0 mg/kg/injection, schedule: Q01DX009 (ip), vehicle: water): 150, 152, 157, 162, 174, 187, 192, 199, 213 % of control | T/C (dose: 6.25 mg/kg/injection, schedule: Q01DX005 (iv), vehicle: saline): 133 % of control | T/C (dose: 6.48 mg/kg/injection, schedule: Q01DX009 (sc), vehicle: saline): 136 % of control | T/C (dose: 7.78 mg/kg/injection, schedule: Q01DX005 (iv), vehicle: saline): 131 % of control | T/C (dose: 8.0 mg/kg/injection, schedule: Q01DX009 (ip), vehicle: saline with Tween-80, evaluated on day 30): 190, 212, 276 % of control | T/C (dose: 8.0 mg/kg/injection, schedule: Q01DX009 (ip), vehicle: saline with Tween-80, evaluated on day 35): 266 % of control | T/C (dose: 8.0 mg/kg/injection, schedule: Q01DX009 (ip), vehicle: water, evaluated on day 30): 185, 196, 198, 200, 202, 207, 213, 214 % of control | T/C (dose: 8.0 mg/kg/injection, schedule: Q01DX009 (ip), vehicle: water, evaluated on day 60): 234 % of control [9 of 10 alive] | survivor count (dose: 8.0 mg/kg/injection, schedule: Q01DX009 (ip), vehicle: water): 10 of 10 | T/C (dose: 8.0 mg/kg/injection, schedule: Q04DX003 (ip), vehicle: saline): 145 % of control | T/C (dose: 10.0 mg/kg/injection, schedule: Q01DX005 (iv), vehicle: saline): 131 % of control | T/C (dose: 10.0 mg/kg/injection, schedule: Q01DX009 (ip), vehicle: saline, evaluated on day 10): 103 % of control [2 of 6 alive] | T/C (dose: 10.0 mg/kg/injection, schedule: Q01DX009 (ip), vehicle: saline, evaluated on day 30): 117 % of control | T/C (dose: 10.0 mg/kg/injection, schedule: Q01DX009 (ip), vehicle: saline, evaluated on day 35): 321 % of control | T/C (dose: 10.0 mg/kg/injection, schedule: Q01DX009 (ip), vehicle: saline, evaluated on day 45): 271 % of control | T/C (dose: 10.0 mg/kg/injection, schedule: Q01DX009 (ip), vehicle: saline, evaluated on day 50): 333 % of control [5 of 6 alive] | T/C (dose: 10.0 mg/kg/injection, schedule: Q01DX009 (ip), vehicle: water): 158, 168, 174, 177, 181, 189, 203, 208, 247 % of control | T/C (dose: 10.4 mg/kg/injection, schedule: Q04DX003 (iv), vehicle: saline): 127 % of control | T/C (dose: 12.5 mg/kg/injection, schedule: Q01DX005 (iv), vehicle: saline): 133 % of control | T/C (dose: 13.0 mg/kg/injection, schedule: Q04DX003 (ip), vehicle: saline): 141 % of control | T/C (dose: 16.0 mg/kg/injection, schedule: Q01DX009 (ip), vehicle: Klucel (hydroxypropylcellulose) (HPC)): 129 % of control | T/C (dose: 16.0 mg/kg/injection, schedule: Q01DX009 (ip), vehicle: saline with Tween-80, evaluated on day 30): 91, 259, 275 % of control | T/C (dose: 16.0 mg/kg/injection, schedule: Q01DX009 (ip), vehicle: saline with Tween-80, evaluated on day 35): 332 % of control | T/C (dose: 16.0 mg/kg/injection, schedule: Q01DX009 (ip), vehicle: water, evaluated on day 30): 141, 205, 217, 220, 223, 230, 265, 272 % of control | T/C (dose: 16.0 mg/kg/injection, schedule: Q01DX009 (ip), vehicle: water, evaluated on day 60): 153 and 272 % of control | T/C (dose: 16.0 mg/kg/injection, schedule: Q04DX003 (ip), vehicle: saline): 130 and 148 % of control | T/C (dose: 17.3 mg/kg/injection, schedule: Q04DX003 (iv), vehicle: saline, evaluated on day 45): 133 % of control | T/C (dose: 17.3 mg/kg/injection, schedule: Q04DX003 (iv), vehicle: saline, evaluated on day 60): 137 % of control | survivor count (dose: 20.0 mg/kg/injection, schedule: Q01DX009 (ip), vehicle: distilled water + Tween-80): 6 of 6 | T/C (dose: 20.0 mg/kg/injection, schedule: Q01DX009 (ip), vehicle: saline, evaluated on day 10): 132 % of control | T/C (dose: 20.0 mg/kg/injection, schedule: Q01DX009 (ip), vehicle: saline, evaluated on day 30): 86 % of control | T/C (dose: 20.0 mg/kg/injection, schedule: Q01DX009 (ip), vehicle: saline, evaluated on day 35): 321 % of control | T/C (dose: 20.0 mg/kg/injection, schedule: Q01DX009 (ip), vehicle: saline, evaluated on day 45): 203 % of control | T/C (dose: 20.0 mg/kg/injection, schedule: Q01DX009 (ip), vehicle: saline, evaluated on day 50): 450 % of control | T/C (dose: 20.0 mg/kg/injection, schedule: Q01DX009 (ip), vehicle: water): 89, 166, 204, 211, 234, 238, 272, 277, 291 % of control | T/C (dose: 20.0 mg/kg/injection, schedule: Q04DX003 (iv), vehicle: saline): 127 % of control | T/C (dose: 21.6 mg/kg/injection, schedule: Q01DX001 (iv), vehicle: saline): 127 % of control | T/C (dose: 21.6 mg/kg/injection, schedule: Q04DX003 (ip), vehicle: saline): 152, 195, 227, 259 % of control | T/C (dose: 24.0 mg/kg/injection, schedule: Q04DX003 (ip), vehicle: saline): 127 % of control | T/C (dose: 25.0 mg/kg/injection, schedule: Q04DX003 (ip), vehicle: Klucel (hydroxypropylcellulose) (HPC)): 137 % of control [survivors not given] | T/C (dose: 28.8 mg/kg/injection, schedule: Q04DX003 (iv), vehicle: saline, evaluated on day 45): 140 % of control | T/C (dose: 28.8 mg/kg/injection, schedule: Q04DX003 (iv), vehicle: saline, evaluated on day 60): 149 % of control
